Some of these results come from one statement about several compounds together.
Tested on: Pyricularia oryzae
Assay type: in vivo
Conditions: 200 ppm foliar spray, rice (Hinohikari), contact with infected seedlings 6 to 7 days

| Compound | lesion area in the treated rice relative to the lesion area in the non-treated rice |
| --- | --- |
| CCCS(=O)(=O)c1ccn(-c2ccc(C3CC3)cc2)n1 [IIA-92] | ≤ 30% |
| COc1ccc(Sc2ccn(-c3ccc(Cl)cc3)n2)cc1 [IA-5] | ≤ 30% |
